Screening data, single-dose tests

Data taken from ChEMBL document CHEMBL3988442, “University of Dundee, Small-Polar-MMV Screening Library” (2021).

T. brucei: 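Whole-parasite assay of Trypanosoma brucei over 72 hours; the read-out is not stated. Compounds at 30 µM. The record gives no direction; compounds that gave an IC50 in retests scored well above the rest, so higher reads as stronger inhibition. Values scatter widely below zero; nearly all retest evidence comes from the higher of the two concentrations used. Of about 64,000 compounds tested this way, about 940 (1.5%) reached 50% or more in at least one test.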
Leishmania in macrophages: 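Cell assay of Leishmania donovani living inside macrophages; the read-out is not stated. Concentration: 30 µM. Direction is inferred from retests: higher values go with stronger inhibition. Of about 69,000 compounds tested this way, about 1,000 (1.5%) reached 50% or more in at least one test.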

Each number is a percent effect as filed.
The controls that fix the scale are not given in the record; negative values are as filed.
The compounds are a random part of those screened.
Two or more numbers in one place are separate tests of the same structure; such repeats can differ widely.

Result for Nc1nc(N2CCCC(COc3ccc(F)cc3)C2)c2nc[nH]c2n1 (stereo not drawn) was T. brucei: 20.57%; Leishmania in macrophages: 1.305%. Result for Cc1nc(CN(C)C(=O)C2CCC(=O)N(CCN(C)C)C2)cs1 (stereo not drawn) was T. brucei: -28.07%; Leishmania in macrophages: -4.947%. Result for CCOc1ccc(N2CCCN=C2NC(=O)c2cccc(Cl)c2)cc1 was T. brucei: -17.42%; Leishmania in macrophages: 9.962%. For CCS(=O)(=O)CCNc1nc(C2CCCC2)nc2c1cnn2C the result was T. brucei: -36.89%; Leishmania in macrophages: 26.65%. Result for c1c(CN2CCOCC2)nc2n1CCN(C1CCOCC1)C2 was T. brucei: -51.28%; Leishmania in macrophages: 14.55%. With CN(Cc1cnc(C(C)(C)C)nc1)Cc1nc2ccc(F)cc2[nH]1 the screen gave T. brucei: -18.98%; Leishmania in macrophages: 52.7%.

CC(C)C(=O)Nc1ccc(Sc2nncn2C)c(Cl)c1 read T. brucei: -14.99%; Leishmania in macrophages: -5.304%. With CCS(=O)(=O)N1CCC2(CN(c3ccsc3)C(=O)CN2C)C1.O=C(O)C(F)(F)F (stereo not drawn) the screen gave T. brucei: -22.46%; Leishmania in macrophages: -34.71%. O=C(Cn1cnc2sccc2c1=O)NCCc1nnc2ccccn12 read T. brucei: -0.9094%; Leishmania in macrophages: 0.467%. Result for CCn1ncc2c1CCCC2NCC1=Cc2ccccc2OC1 (stereo not drawn) was T. brucei: 2.112%; Leishmania in macrophages: -1.029%. O=C(O)C(F)(F)F.O=C(c1ccncc1)N1CCCn2nnc(COCCO)c2C1 read Leishmania in macrophages: 9.278%. Result for CC(C)Cn1[nH]cc/c1=N\C(=O)CN1CCOC(Cn2cccn2)C1 (stereo not drawn) was T. brucei: -10.65%; Leishmania in macrophages: 1.529%.

COCCC(C)NC(=O)N1CCSC(C)(C)C1 (stereo not drawn) gave T. brucei: -8.523%; Leishmania in macrophages: 15.84%. Cn1cc(-c2cnc(N3CCOCC3)nc2)cc1C(=O)NC1CC1 gave T. brucei: -249.1%; Leishmania in macrophages: 38.99%. For Cc1cc(CN2CCC(c3cc(Cc4ccccc4)n[nH]3)CC2)[nH]n1 the result was T. brucei: -40.62%; Leishmania in macrophages: 26.02%. For CCc1cc(N2CCC(N[C@@H]3CS(=O)(=O)C[C@H]3O)CC2)nc(N(C)C)n1 the result was T. brucei: -14.73%; Leishmania in macrophages: 3.402%. COc1ccccc1NCC(=O)NCc1cc[nH]n1 gave T. brucei: -18.36%; Leishmania in macrophages: -1.191%. With O=C(N1CCC(OCc2ccccn2)CC1)C1(c2ccc(F)cc2)CC1 the screen gave T. brucei: -36.15%; Leishmania in macrophages: 7.064%.

CCNC(=O)NC(C)(C)C(=O)NCCc1csc2ccccc12 gave T. brucei: -4.438%; Leishmania in macrophages: -21.59%. With CC(C)(N)C(=O)N1CCCC(c2cncc(Oc3cccnc3)n2)C1 (stereo not drawn) the screen gave T. brucei: 1.924%; Leishmania in macrophages: -2.032%. Cc1cc(CNC(=O)[C@H]2CCCCN2C(=O)OC(C)(C)C)on1 gave T. brucei: 4.972%; Leishmania in macrophages: 12.71%. Cc1ccc(C(=O)N2CCCC(c3cc(C(F)(F)F)[nH]n3)C2)o1 (stereo not drawn) read T. brucei: 19.45%; Leishmania in macrophages: 37%. For CNc1ncccc1CN1CCN(c2cc(NC3CC3)nc(N)n2)CC1 the result was T. brucei: -26.69%; Leishmania in macrophages: -26.12%. Result for Cc1cc(NCC2CCS(=O)(=O)C2)n2nc(C)cc2n1 (stereo not drawn) was T. brucei: -3.12%; Leishmania in macrophages: -15.52%.

Cc1nc(CN2CCN(c3ccc(Cl)cn3)CC2)no1 gave T. brucei: -19.8%; Leishmania in macrophages: 51.54%. Result for Cc1ccc(N2CCCN(C(=O)C(C)OCC3CC3)CC2)nn1 (stereo not drawn) was T. brucei: -118.3%; Leishmania in macrophages: 22.12%. Cc1ccc(OCC(O)CN(C)CC(=O)NC(C)C)c(C)c1 (stereo not drawn) read T. brucei: -28.22%; Leishmania in macrophages: 19.87%. With Cc1cnn(CC2CCCCN2CCCS(N)(=O)=O)c1 (stereo not drawn) the screen gave T. brucei: -19.82%; Leishmania in macrophages: -6.982%. Result for COc1ccc(C(C)N(C)Cc2c(C(C)(C)C)[nH]c3ncccc23)cc1 (stereo not drawn) was T. brucei: -5.293%; Leishmania in macrophages: -0.6833%. For COCCSCC(=O)NC1(c2cccc(Br)c2)CC1 the result was T. brucei: -67.76%; Leishmania in macrophages: 6.05%.

For Cc1cc2n(n1)CC(CNC1CCN(Cc3ccccn3)CC1)CN2 (stereo not drawn) the result was T. brucei: -11.47%; Leishmania in macrophages: 17.09%. O=C(O)c1nnn(-c2ccc(C(F)(F)F)cc2)c1-c1ccncc1 gave T. brucei: -44.86%; Leishmania in macrophages: 27.76% & 22.35%. Result for Cc1nc(CSCCC(=O)Nc2cccc(N3CCNC3=O)c2)cs1 was Leishmania in macrophages: 8.872%. CN1CCN(C[C@H]2CC[C@@H](Cc3ccc4c(c3)OCO4)O2)CC1 read T. brucei: 8.381%; Leishmania in macrophages: 10.75%. CN1CCC2(CC1)CN(C(=O)c1cccnc1)Cc1ccccc12 read T. brucei: -39.84%; Leishmania in macrophages: 11.21%. For N#Cc1ccsc1NC(=O)CN1CCOC(Cn2cccn2)C1 (stereo not drawn) the result was Leishmania in macrophages: 13.95%.

CNC(=O)c1nc(CC(=O)Nc2cccc(C(F)(F)F)c2)no1 read T. brucei: -57.58%; Leishmania in macrophages: -13.79%. Result for CCC(C)NC(=O)Cn1ccc2c(C)nn(CC)c2c1=O (stereo not drawn) was T. brucei: -8.28%; Leishmania in macrophages: -28.66%. CCN(CC)C(=O)[C@@H]1C[C@@H](N)CN1c1nc(N2CCCC2)nc(C)c1C gave T. brucei: 4.035%; Leishmania in macrophages: -15.72%. With Cc1cc(NC(=O)NCC(CC(C)C)N2CCOCC2)n(C)n1 (stereo not drawn) the screen gave T. brucei: 1.717%; Leishmania in macrophages: -3.794%. With CC(O)CN1CCN(C(=O)c2cnc(OC(C)C)c(Cl)c2)CC1 (stereo not drawn) the screen gave T. brucei: -53.96%; Leishmania in macrophages: -0.6877%. O=C(O)C(F)(F)F.O=C(O)C(F)(F)F.[H][C@]12C[C@@H](CN3CCCC3)N(C)[C@@]1([H])CCN(C(=O)c1cccn1C)C2 gave T. brucei: 14%; Leishmania in macrophages: 19.85%.

With COc1cccc(C(=O)N2CCc3ncnc(C)c3CC2)c1 the screen gave T. brucei: -20.53%; Leishmania in macrophages: -0.03552%. With CCN(CC1CCCO1)S(=O)(=O)c1cc(NC(C)=O)ccc1C (stereo not drawn) the screen gave T. brucei: -4.002%; Leishmania in macrophages: 10.79%. COCCN1CCc2cc(C(=O)N(C)C)c(NC(C)C)nc2CC1.O=C(O)C(F)(F)F.O=C(O)C(F)(F)F read T. brucei: -20.57%; Leishmania in macrophages: 18.98%.

The first 2 entries again:

With Nc1nc(N2CCCC(COc3ccc(F)cc3)C2)c2nc[nH]c2n1 (stereo not drawn) the screen gave T. brucei: 20.57%; Leishmania in macrophages: 1.305%.
With Cc1nc(CN(C)C(=O)C2CCC(=O)N(CCN(C)C)C2)cs1 (stereo not drawn) the screen gave T. brucei: -28.07%; Leishmania in macrophages: -4.947%.